# Data from PubChem BioAssay AID1487 (National Center for Advancing Translational Sciences (NCATS), 2009).
# The list shows a part of the results. These are further read-outs of the screen, such as a control signal, another cell line or another target. No call is given for them. Most of these compounds were active or inconclusive in the main read-out, so they are no random draw. The note in brackets gives the kind of curve behind each potency; many fits are weak.
# Assay: qHTS Assay for Modulators of Lamin A Splicing
# Conditions: HeLa LMNA splicing GFP/RFP minigene ratio, 48 h
# Outline: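 S3 HeLa cells stably expressing lamin A-EGFP splicing minigene plus DsRed2, 600 cells/well, 48 h compound exposure at 37C. Laser-scanning cytometry; analysed as GFP (500-530 nm)/RFP (575-640 nm) total intensity ratio; 0.5% DMSO vehicle.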
# [1] = measured here: RFP viability control channel
# [2] = measured here: GFP splicing reporter channel
Compound,AC50 [1],AC50 [2]
Nc1nc(-c2ccc(-c3ccccc3)cc2)cs1,"17.8 µM [rising, partial curve, poor fit]",–
COc1ccc(Cl)cc1NC(=O)c1nn(-c2ccc(C)cc2)c(=O)n(C)c1=O,"35.5 µM [falling, single point]",–
O=C(C1CCC1)N1CCc2cc(S(=O)(=O)NCC3COc4ccccc4O3)ccc21 (stereo not drawn),"28.2 µM [rising, single point]",–
O=C(COc1ccccc1F)c1ccc(O)cc1O,"0.0398 µM [rising, full curve, poor fit]",–
Cc1cccc(Cn2c(N3CCN(c4ccccc4)CC3)nc3c2c(=O)n(C)c(=O)n3C)c1,"17.8 µM [rising, partial curve]","12.6 µM [rising, partial curve, poor fit]"
Cc1ccc(SC(C)C(=O)Nc2ccc(S(=O)(=O)N3CCOCC3)cc2)cc1 (stereo not drawn),"2.24 µM [rising, partial curve, poor fit]",–
CC(C)(C)NC(=O)NC(=O)COC(=O)c1c(F)cccc1Cl,"0.00501 µM [rising, full curve, poor fit]",–
CCOc1ccc2nc(SCC(=O)c3ccccc3)sc2c1,"35.5 µM [rising, single point]",–
O=C(OCC(=O)N1CCOCC1)c1ccc2c(c1)OCCO2,"31.6 µM [rising, single point]",–
O=C(Nc1ccc2c(c1)CCCN2C(=O)c1cccs1)c1ccccc1Cl,–,"0.0251 µM [falling, full curve]"
CCCc1cc(-c2n[nH]c(=S)n2C(C)c2ccccc2)cs1 (stereo not drawn),"35.5 µM [rising, single point]",–
Cc1ccc(N2CCOCC2)c2c1C(=O)c1ccccc1C2=O,"2.51 µM [rising, partial curve]","1.41 µM [rising, partial curve]"
COc1ccc(C2SCCN2C(=S)Nc2cccc(Cl)c2)cc1 (stereo not drawn),"14.1 µM [rising, partial curve]",–
Cc1ccc(SCCNC(=S)Nc2cc(C)cc(C)c2)cc1,"31.6 µM [rising, single point]","12.6 µM [rising, partial curve]"
c1ccc(-c2noc(CSc3nc4ccccc4o3)n2)cc1,"17.8 µM [rising, single point]",–
O=C(Cc1sc(Nc2ccccc2)nc1-c1ccccc1)NCc1ccccc1,"35.5 µM [falling, single point]","35.5 µM [falling, single point]"
Cc1ccc(N2C(=O)CS(=O)(=O)C23C(=O)Nc2ccccc23)cc1C (stereo not drawn),"0.0891 µM [falling, full curve, poor fit]",–
O=C(CSc1nc2ccccc2s1)Nc1ccc(Cl)c(S(=O)(=O)N2CCOCC2)c1,"12.6 µM [rising, partial curve]",–

Compound,AC50 [1],AC50 [2]
CCn1c(C)c(C2=CCN(S(=O)(=O)c3ccccc3)CC2)c2ccccc21,"15.8 µM [rising, single point]",–
Cc1ccc(Cl)cc1NC(=O)c1ocnc1C,"3.98 µM [falling, partial curve]","3.55 µM [falling, single point]"
COC(=O)c1c(-c2ccc(C)cc2)csc1NC(=O)Cc1ccc(OC)c(OC)c1,"10 µM [rising, partial curve]","11.2 µM [rising, partial curve, poor fit]"
COc1ccc(/C=C2/C(=O)N(c3nc4ccccc4s3)N=C2CSc2ccc(Cl)cc2)cc1,"17.8 µM [rising, single point]",–
COc1cccc(-n2nnnc2SCC(=O)c2ccc(NC(C)=O)cc2)c1,"2.24 µM [falling, partial curve]","2.82 µM [falling, partial curve]"
CCN1CCN(CC(=O)c2ccc(OC)cc2)CC1,"0.501 µM [rising, full curve, poor fit]",–
COc1ccc(/C=C/C(=O)c2c(O)ccc3c(C)cc(=O)oc23)cc1,"3.16 µM [falling, single point]","35.5 µM [falling, single point]"
COc1ccc(O)c(C(=O)c2cc(C#N)c(=O)n(CC3CCCO3)c2)c1 (stereo not drawn),"35.5 µM [falling, partial curve, poor fit]",–
N#Cc1cccc(-c2cc(NCc3cccs3)ncn2)c1,"0.158 µM [falling, full curve, poor fit]",–
O=C(Nc1ccc2nc(SCc3ccc(Cl)cc3)sc2c1)c1ccccc1C(=O)N1CCOCC1,"35.5 µM [falling, single point]","35.5 µM [falling, single point]"
NC(=O)C1C(c2ccccc2)=C1c1ccccc1,"25.1 µM [rising, single point]","12.6 µM [rising, single point]"
CC(=O)c1ccc(NC(=O)c2ccc(S(=O)(=O)c3ccccc3)cc2)cc1,"17.8 µM [rising, single point]",–
O=C(N/N=C/c1ccc(OC2CSC2)cc1)c1ccccc1,"7.94 µM [falling, partial curve]","7.08 µM [falling, partial curve, poor fit]"
CCOc1ccccc1N1CCN(C(=O)C2c3ccccc3Oc3ccccc32)CC1,"35.5 µM [falling, single point]","35.5 µM [falling, single point]"
O=C(Nc1ccc2c(c1)OCO2)c1ccc(COc2ccc3c(c2)CCC3)o1,"8.91 µM [rising, partial curve, poor fit]",–
Cc1cccc(Cc2nnc(CCC(=O)N(C)C3CCOC3)o2)c1 (stereo not drawn),"0.0447 µM [falling, full curve, poor fit]",–
COc1ccc2c(=O)c(C(=O)NCCc3ccc(OC)c(OC)c3)c[nH]c2c1,"7.94 µM [rising, partial curve, poor fit]",–
COc1cc(C2Nc3ccc4ncccc4c3C3=C2C(=O)CCC3)cc(OC)c1O (stereo not drawn),"3.16 µM [rising, single point]",–

# Sorted by SMILES length (smallest number first): some entries from above
Compound,AC50 [1],AC50 [2]
COc1cccc(-n2nnnc2SCC(=O)c2ccc(NC(C)=O)cc2)c1,"2.24 µM [falling, partial curve]","2.82 µM [falling, partial curve]"
COc1ccc(O)c(C(=O)c2cc(C#N)c(=O)n(CC3CCCO3)c2)c1 (stereo not drawn),"35.5 µM [falling, partial curve, poor fit]",–
COC(=O)c1c(-c2ccc(C)cc2)csc1NC(=O)Cc1ccc(OC)c(OC)c1,"10 µM [rising, partial curve]","11.2 µM [rising, partial curve, poor fit]"
